Experimental findings from PubChem BioAssay AID493014 (National Center for Advancing Translational Sciences (NCATS), 2011) are described below.

Molecules are shown by their SMILES. The list shows a part of the results. Further columns of the screen follow, without active or inactive calls. Compounds called inactive in the main read-out are mostly missing here. The note in brackets gives the kind of curve behind each potency; many fits are weak.

The nature of this assay: qHTS Assay to Find Inhibitors of Chronic Active B-Cell Receptor Signaling. The note with it: ABC-DLBCL IkBa-CBG/CBR reporter, luminescence ratio (green luciferase fused to IkBa over red control in TMD8 lymphoma cells), 4 h. The essentials:
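TMD8 ABC-DLBCL cells carrying doxycycline-inducible green luciferase fused to IkappaBalpha plus unfused red luciferase were exposed to compounds (up to 46 uM) for 4 hrs at 37C. Activity came from the overlap-corrected green/red luminescence ratio.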

[1] abbreviates: measured here: CBR red luminescence, cell number.
[2] abbreviates: measured here: IkBa-CBG green luminescence.

On to `CCOC(=O)[C@H]1[C@H]2COc3ccc(Br)cc3[C@@H]2N2C(=O)CN(Cc3ccc(F)cc3)C(=O)[C@@]12C`, for which the AC50 is 29.1 µM [falling, single point] under setting [1] and 13 µM [rising, partial curve, poor fit] under setting [2].
Regarding `COc1cc2nc(NCCCN3CCN(C)CC3)n3nc(-c4ccccc4)nc3c2cc1OC`, under setting [1], the AC50 was 5.17 µM [falling, partial curve, poor fit].
Take `CSc1ccc(N2C(=O)NC3(CCCCC3)C2=O)cc1`: the AC50 under setting [1] was 3.55 µM [rising, full curve, poor fit].
The same measure, in the same setting: the result for `Cc1nn(Cc2ccccc2)c(Cl)c1/C=C/C(=O)OCC(=O)NC(C)C(C)C` (centres undefined) reads 6.31 µM [rising, partial curve, poor fit]; that for `O=C(CSc1nc2ccccc2c(=O)n1Cc1ccco1)N1CCN(c2ccccc2)CC1`, 5.62 µM [falling, full curve]; that for `O=C1Nc2ccccc2Oc2cc(Oc3ccccc3)ccc21`, 18.4 µM [rising, partial curve].
Turning to `O=C(NNC(=O)C12CC3CC(CC(Cl)(C3)C1)C2)c1csc(N2CCOCC2)n1`, the AC50 under setting [1] is 3.16 µM [falling, partial curve, poor fit].
For `Cc1ccc(Nc2nc(NCc3ccco3)c3ccccc3n2)cc1`, the AC50 under setting [2] is 11.2 µM [falling, partial curve, poor fit].
As for `Clc1cccc(CON/C=N/c2ncnc3sccc23)c1`, under setting [1], the concentration at half-maximal activity (AC50) is 10 µM [falling, partial curve, poor fit].
Same read-out and setting: the result for `CNc1ncc(C(=O)c2ccccc2)s1` reads 11.2 µM [falling, partial curve]; that for `COC(=O)c1ccc2c(=O)n(CCCCCC(=O)O)c(=O)[nH]c2c1`, 29.1 µM [falling, single point]; that for `O=C(CSc1nc(C2CCCCC2)nc2ccccc12)NCc1ccco1`, 28.2 µM [falling, partial curve, poor fit].
The same measure, in the same setting: the result for `O=C(Nc1ccc2c(c1)OCCO2)c1ccccc1` reads 25.1 µM [falling, single point]; that for `CCn1c(SCC(=O)c2ccc(O)c(O)c2)nnc1-c1ccccc1OC`, 10 µM [falling, partial curve]; that for `CCOC(=O)c1cc2c(s1)-c1c(C)cccc1OC2`, 20.6 µM [rising, partial curve, poor fit].
On the same count and under the same terms, the result for `CN(c1ccccc1)S(=O)(=O)c1ccc(NC(=O)c2nc(S(C)(=O)=O)ncc2Cl)cc1` reads 7.94 µM [falling, partial curve, poor fit].
For `CCc1ccc(-c2c(C)sc(NC(C)=O)c2C(N)=O)cc1`, the AC50 under setting [1] is 1 µM [rising, partial curve, poor fit] and the AC50 under setting [2] is 10 µM [falling, partial curve].
